Results: the supplement of paper PMC10849652
Some of the results follow.

Sequences of proteins named here, by UniProt entry; tags and fusion partners are left off. A change or cut given only in a name is not applied to a line headed by its entry.
UniProt O14638, whole entry, looked up: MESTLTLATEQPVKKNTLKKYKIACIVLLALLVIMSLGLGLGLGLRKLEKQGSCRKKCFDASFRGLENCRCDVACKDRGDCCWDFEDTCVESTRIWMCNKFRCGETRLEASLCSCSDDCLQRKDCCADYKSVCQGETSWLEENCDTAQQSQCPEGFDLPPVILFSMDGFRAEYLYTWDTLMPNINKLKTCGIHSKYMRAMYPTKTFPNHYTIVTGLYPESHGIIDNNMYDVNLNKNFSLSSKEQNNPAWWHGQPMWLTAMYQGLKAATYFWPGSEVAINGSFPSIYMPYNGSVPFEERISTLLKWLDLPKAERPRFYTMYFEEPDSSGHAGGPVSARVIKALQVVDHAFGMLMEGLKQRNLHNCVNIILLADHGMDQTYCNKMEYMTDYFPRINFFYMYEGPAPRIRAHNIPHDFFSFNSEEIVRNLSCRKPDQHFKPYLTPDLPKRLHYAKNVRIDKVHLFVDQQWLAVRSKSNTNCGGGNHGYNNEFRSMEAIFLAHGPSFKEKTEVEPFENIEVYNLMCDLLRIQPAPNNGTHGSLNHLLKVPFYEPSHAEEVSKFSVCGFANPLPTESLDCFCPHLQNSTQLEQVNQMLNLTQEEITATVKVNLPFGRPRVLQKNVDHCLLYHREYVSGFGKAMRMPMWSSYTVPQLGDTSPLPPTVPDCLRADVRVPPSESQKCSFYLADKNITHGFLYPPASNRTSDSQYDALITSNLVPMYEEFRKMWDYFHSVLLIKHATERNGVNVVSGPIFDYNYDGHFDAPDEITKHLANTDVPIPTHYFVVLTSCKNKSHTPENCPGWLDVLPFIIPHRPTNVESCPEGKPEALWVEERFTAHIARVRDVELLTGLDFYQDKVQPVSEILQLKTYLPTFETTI
UniProt Q13347, whole entry, looked up: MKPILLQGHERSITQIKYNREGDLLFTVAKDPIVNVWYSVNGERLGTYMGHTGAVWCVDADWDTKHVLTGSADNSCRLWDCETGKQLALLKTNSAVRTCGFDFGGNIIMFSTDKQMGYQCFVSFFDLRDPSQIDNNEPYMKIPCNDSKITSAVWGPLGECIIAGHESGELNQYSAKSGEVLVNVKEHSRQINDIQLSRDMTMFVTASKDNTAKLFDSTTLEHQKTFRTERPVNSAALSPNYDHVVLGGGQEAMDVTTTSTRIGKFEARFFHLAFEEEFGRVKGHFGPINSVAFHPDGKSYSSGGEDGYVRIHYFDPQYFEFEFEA
UniProt O94919: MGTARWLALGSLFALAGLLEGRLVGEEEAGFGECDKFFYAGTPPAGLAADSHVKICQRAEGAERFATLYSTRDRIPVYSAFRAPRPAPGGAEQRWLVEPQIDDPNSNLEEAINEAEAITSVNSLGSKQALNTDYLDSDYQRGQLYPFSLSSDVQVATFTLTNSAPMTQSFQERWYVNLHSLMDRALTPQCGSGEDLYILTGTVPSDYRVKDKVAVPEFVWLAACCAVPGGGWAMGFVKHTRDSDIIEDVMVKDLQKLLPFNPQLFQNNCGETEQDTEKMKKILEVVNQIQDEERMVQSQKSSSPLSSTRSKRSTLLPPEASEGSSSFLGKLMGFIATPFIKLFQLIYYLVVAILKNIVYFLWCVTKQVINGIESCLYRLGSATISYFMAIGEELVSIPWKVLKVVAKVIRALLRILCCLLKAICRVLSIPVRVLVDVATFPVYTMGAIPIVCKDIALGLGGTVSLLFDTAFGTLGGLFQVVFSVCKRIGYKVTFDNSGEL
UniProt P50548: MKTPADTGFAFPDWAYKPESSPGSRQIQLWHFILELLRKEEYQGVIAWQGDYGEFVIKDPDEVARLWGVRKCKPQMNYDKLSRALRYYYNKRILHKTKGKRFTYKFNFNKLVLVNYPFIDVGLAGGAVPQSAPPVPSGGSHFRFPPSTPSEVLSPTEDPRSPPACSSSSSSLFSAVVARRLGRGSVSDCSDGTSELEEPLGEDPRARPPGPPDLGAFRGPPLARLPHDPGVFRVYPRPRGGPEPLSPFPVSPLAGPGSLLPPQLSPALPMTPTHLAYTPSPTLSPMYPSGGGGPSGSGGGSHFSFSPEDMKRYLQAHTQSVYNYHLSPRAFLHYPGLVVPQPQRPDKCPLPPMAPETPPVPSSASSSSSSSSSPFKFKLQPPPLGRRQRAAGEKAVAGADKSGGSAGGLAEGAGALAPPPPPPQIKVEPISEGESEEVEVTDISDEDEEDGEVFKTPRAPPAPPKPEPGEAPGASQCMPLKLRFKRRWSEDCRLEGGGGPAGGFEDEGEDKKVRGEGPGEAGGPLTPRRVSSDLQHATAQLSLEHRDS
UniProt Q9HCE0: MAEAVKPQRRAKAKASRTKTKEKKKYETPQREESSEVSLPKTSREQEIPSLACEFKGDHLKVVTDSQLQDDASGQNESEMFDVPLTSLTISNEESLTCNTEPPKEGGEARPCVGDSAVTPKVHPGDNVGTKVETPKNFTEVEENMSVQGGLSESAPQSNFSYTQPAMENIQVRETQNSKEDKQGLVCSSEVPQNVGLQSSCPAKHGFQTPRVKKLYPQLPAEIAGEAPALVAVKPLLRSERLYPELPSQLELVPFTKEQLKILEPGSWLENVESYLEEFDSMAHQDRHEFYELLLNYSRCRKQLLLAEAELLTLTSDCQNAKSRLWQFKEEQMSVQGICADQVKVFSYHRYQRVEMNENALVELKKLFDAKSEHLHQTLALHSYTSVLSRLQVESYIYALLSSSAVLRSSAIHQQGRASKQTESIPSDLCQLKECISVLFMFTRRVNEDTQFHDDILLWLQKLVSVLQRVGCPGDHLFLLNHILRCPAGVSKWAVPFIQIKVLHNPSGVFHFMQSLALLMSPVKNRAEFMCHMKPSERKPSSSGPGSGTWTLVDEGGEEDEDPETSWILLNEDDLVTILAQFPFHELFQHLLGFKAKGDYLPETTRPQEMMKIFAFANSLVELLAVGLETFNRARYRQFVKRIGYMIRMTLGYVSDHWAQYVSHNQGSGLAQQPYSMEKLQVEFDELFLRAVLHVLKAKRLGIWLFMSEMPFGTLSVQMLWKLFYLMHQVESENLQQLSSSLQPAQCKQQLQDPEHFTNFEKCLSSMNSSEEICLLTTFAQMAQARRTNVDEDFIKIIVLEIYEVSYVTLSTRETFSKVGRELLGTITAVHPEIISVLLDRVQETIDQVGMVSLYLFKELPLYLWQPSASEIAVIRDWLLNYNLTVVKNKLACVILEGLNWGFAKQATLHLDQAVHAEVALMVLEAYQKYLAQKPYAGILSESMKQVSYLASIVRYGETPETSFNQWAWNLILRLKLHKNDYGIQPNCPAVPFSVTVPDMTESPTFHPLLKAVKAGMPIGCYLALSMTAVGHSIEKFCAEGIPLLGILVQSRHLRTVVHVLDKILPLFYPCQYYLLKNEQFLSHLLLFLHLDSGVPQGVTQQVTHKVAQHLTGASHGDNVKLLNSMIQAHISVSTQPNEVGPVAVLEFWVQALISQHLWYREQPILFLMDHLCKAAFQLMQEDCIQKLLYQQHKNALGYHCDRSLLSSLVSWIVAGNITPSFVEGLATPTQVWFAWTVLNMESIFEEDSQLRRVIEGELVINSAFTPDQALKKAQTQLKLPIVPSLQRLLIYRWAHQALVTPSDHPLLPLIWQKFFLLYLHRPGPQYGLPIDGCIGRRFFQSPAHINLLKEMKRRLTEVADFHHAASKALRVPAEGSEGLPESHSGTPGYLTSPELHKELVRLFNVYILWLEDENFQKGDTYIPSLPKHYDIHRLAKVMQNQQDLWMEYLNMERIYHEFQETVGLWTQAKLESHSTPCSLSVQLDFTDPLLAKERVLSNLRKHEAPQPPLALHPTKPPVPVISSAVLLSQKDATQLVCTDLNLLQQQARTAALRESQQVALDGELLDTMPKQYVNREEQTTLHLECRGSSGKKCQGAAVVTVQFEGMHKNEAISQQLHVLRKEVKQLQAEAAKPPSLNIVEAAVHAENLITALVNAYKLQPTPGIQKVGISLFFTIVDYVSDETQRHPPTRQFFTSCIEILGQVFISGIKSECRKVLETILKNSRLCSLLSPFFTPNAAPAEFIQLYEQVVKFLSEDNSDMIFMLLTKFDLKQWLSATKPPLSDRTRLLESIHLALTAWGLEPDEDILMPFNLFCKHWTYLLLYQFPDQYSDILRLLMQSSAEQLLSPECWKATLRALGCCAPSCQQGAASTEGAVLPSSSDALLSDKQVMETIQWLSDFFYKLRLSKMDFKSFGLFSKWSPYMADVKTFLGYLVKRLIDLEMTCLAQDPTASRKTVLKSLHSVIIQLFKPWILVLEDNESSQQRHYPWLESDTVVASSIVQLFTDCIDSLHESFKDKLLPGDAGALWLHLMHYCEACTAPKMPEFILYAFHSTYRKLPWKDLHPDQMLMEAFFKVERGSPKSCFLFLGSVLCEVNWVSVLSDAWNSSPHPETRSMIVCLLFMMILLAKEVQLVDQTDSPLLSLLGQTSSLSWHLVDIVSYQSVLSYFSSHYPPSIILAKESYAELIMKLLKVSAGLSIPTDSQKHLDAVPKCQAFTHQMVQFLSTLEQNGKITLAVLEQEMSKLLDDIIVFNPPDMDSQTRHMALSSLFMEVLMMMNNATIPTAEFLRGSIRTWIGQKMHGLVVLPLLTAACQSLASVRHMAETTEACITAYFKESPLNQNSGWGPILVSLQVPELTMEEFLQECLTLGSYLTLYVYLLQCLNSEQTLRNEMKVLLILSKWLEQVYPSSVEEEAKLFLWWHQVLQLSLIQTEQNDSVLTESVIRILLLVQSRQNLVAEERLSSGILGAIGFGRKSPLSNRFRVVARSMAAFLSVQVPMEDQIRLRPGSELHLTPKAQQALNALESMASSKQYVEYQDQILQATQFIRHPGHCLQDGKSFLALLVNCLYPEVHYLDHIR
UniProt P0DP91, whole entry, looked up: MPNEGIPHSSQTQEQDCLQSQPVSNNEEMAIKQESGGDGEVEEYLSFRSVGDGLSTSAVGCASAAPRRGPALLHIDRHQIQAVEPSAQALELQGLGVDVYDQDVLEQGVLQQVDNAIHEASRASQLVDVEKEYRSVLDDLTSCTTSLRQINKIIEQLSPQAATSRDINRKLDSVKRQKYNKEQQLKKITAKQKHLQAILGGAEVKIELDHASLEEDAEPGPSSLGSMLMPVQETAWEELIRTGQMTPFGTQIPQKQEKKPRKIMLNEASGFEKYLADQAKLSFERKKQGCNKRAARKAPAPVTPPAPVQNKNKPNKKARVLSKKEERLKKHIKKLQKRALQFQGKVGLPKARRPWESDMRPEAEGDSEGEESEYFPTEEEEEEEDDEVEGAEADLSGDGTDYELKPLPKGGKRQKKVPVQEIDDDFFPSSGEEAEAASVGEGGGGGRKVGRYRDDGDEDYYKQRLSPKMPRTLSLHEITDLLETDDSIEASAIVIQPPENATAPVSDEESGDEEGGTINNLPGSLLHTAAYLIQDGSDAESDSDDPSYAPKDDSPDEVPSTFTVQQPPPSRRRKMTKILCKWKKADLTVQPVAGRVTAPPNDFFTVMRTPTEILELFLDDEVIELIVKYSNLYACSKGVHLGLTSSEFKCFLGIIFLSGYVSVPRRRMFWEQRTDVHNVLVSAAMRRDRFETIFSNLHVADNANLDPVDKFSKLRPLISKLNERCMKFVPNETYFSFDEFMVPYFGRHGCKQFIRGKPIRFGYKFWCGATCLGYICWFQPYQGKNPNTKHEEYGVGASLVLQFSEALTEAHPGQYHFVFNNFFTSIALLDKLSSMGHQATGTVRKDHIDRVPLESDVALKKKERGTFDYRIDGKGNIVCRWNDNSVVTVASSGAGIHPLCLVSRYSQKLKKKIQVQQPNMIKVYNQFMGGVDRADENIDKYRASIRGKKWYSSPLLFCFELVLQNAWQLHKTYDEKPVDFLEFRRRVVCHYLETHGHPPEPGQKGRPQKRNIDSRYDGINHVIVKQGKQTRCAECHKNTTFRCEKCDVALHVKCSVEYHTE
UniProt A1L3X0: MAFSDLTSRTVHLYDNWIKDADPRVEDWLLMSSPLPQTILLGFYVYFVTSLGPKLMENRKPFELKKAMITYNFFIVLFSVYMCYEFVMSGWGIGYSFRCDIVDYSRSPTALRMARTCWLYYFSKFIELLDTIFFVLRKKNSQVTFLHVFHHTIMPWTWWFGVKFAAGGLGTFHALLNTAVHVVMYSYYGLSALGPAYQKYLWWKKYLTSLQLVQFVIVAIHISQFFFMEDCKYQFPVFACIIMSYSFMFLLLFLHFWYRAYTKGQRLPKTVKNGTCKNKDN

Assays:
Experiment in all cases: log2 fold change, soluble protein after heating vs DMSO (PISA); higher = thermal stabilisation; K562 lysate, 10 uM; active = over 0.2 and 3.5 SD of the protein, either way, in both replicates (recomputed)
erlotinib = compound: C#Cc1cccc(Nc2ncnc3cc(OCCOC)c(OCCOC)cc23)c1 [erlotinib]
Procedure, shortened: (§1)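 Values give the log-two fold change in thermal stability against solvent controls, from duplicates. Crude K562 extract at 1 mg/mL protein, made by dounce homogenisation in PBS pH 7.4 with 1 mM MgCl2, was treated with 10 μM compound for 30 min. After 3 min heating across 48°C-58°C, aliquots were pooled, adjusted to 0.5% NP-40 at 4°C and centrifuged at 21,000xg for 90 min. The supernatant was measured by TMTpro 16plex LC-MS/MS with channel sums equalised.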

[1] = compound: C/C(=N\NC(=O)C1=CC(=CC=C1)S(=O)(=O)N2CCOCC2)/C3=C(C=CC(=C3)Cl)O
Procedure, shortened: as §1

[2] = compound: C1=CC(=CC=C1C2=NC3=C(N2)C=C(C=C3)C(=O)N)OC4=CC=C(C=C4)Cl
Procedure, shortened: as §1

[3] = compound: C1=CC2=C(C=CC(=C2)/C=C\3/C(=O)NC(=NCC4=CC=CS4)S3)N=C1
Procedure, shortened: as §1

[4] = compound: C1=CC2=NC=CN=C2C=C1/C=C/3\C(=O)NC(=O)S3
Procedure, shortened: as §1

[5] = compound: C1=CC=C(C=C1)C2=NC(=C(N2)C3=CC=NC=C3)C4=CC(=C(C=C4)Cl)O
Procedure, shortened: as §1

[6] = compound: C1=CC=C2C(=C1)C3=NNC4=CC=CC(=C43)C2=O
Procedure, shortened: as §1

[7] = compound: C1CCN(C1)C(=O)NC2=CC=CC(=C2)NC3=NC=C(C(=N3)NCCC4=CN=CN4)Br
Procedure, shortened: as §1

[8] = compound: C1CN(CCC1(CC2=CC=C(C=C2)Cl)N)C3=NC=NC4=C3C=CN4
Procedure, shortened: as §1

IRAK-1-4 Inhibitor I = compound: C1COCCN1CCN2C3=CC=CC=C3N=C2NC(=O)C4=CC(=CC=C4)[N+](=O)[O-] [IRAK-1-4 Inhibitor I]
Procedure, shortened: as §1

ibrutinib = compound: C=CC(=O)N1CCC[C@@H](n2nc(-c3ccc(Oc4ccccc4)cc3)c3c(N)ncnc32)C1 [ibrutinib]
Procedure, shortened: as §1

[9] = compound: CC(=O)c1cnc2ccc(-c3cc(Cl)c(O)c(Cl)c3)nc2c1N[C@H]1CC[C@H](CN(C)C)CC1
Procedure, shortened: as §1

ralimetinib = compound: CC(C)(C)Cn1c(N)nc2ccc(-c3[nH]c(C(C)(C)C)nc3-c3ccc(F)cc3)nc21 [ralimetinib]
Procedure, shortened: as §1

[10] = compound: CC(C)(O)CC(=O)NCCn1ccc2ncnc(Nc3ccc(Oc4cccc(C(F)(F)F)c4)c(Cl)c3)c21
Procedure, shortened: as §1

[11] = compound: CC(C)C1=C2N=C(C=C(N2N=C1)NCC3=CC=CC=C3)NCCCCCCN
Procedure, shortened: as §1

[12] = compound: CC1=C(C(CC(=O)N1)C2=CC=C(C=C2)C(F)(F)F)C(=O)NC3=C(C=C4C(=C3)C=NN4)F
Procedure, shortened: as §1

[13] = compound: CC1=C(C2=C(C=C1)C(=O)C3=CC=CC=C3N2CCCN)C
Procedure, shortened: as §1

[14] = compound: CC1=C(C=C(C=C1)NC(=O)C2=CC(=CC=C2)C(C)(C)C#N)NC3=CC4=C(C=C3)N=CN(C4=O)C
Procedure, shortened: as §1

[15] = compound: CC1=C(C=C(C=C1)NC(=O)C2=CC(=CC=C2)N(C)C)NC(=O)C3=CC=C(C=C3)O
Procedure, shortened: as §1

[16] = compound: CC1=CC=C(C=C1)SC2=C3C=C(SC3=CN=C2)C(=O)N
Procedure, shortened: as §1

Measured: log2 fold change

ENPP3 (UniProt O14638)
inactive: erlotinib -0.046 | [1] -0.045 | [2] 0.027 | [3] -0.008 | [4] -0.005 | [5] 0.012 | [6] 0.006 | [7] 0.002 | [8] 0.023 | IRAK-1-4 Inhibitor I -0.013 | ibrutinib -0.003 | [9] -0.004 | ralimetinib 0.035 | [10] -0.02 | [11] 0.035 | [12] 0.076 | [13] -0.047 | [14] 0.003 | [15] 0.017 | [16] -0.024

EIF3I (UniProt Q13347)
inactive: erlotinib 0.013 | [1] 0.033 | [2] -0.029 | [3] 0.001 | [4] 0.022 | [5] 0 | [6] -0.026 | [7] 0.004 | [8] -0.007 | IRAK-1-4 Inhibitor I -0.039 | ibrutinib 0.018 | [9] -0.019 | ralimetinib 0.035 | [10] 0.046 | [11] 0.032 | [12] 0.003 | [13] 0.013 | [14] 0.009 | [15] 0.056 | [16] 0.022

ELAVL4 (UniProt P26378)
inactive: erlotinib 0.073 | [1] 0.047 | [2] -0.063 | [3] -0.047 | [5] 0.015 | [6] 0.002 | [7] 0.029 | [8] 0.036 | IRAK-1-4 Inhibitor I -0.012 | [9] -0.04 | ralimetinib 0.065 | [10] 0.064 | [11] 0.026 | [12] -0.061 | [13] -0.01 | [14] -0.005 | [15] -0.026 | [16] 0.073

EPHX1 (UniProt P07099)
inactive: erlotinib -0.035 | [1] -0.049 | [2] 0.016 | [3] -0.025 | [4] 0.004 | [5] -0.002 | [6] 0.01 | [7] 0.065 | [8] -0.033 | IRAK-1-4 Inhibitor I -0.027 | ibrutinib -0.015 | [9] -0.013 | ralimetinib 0.043 | [10] 0.001 | [11] -0.005 | [12] 0.017 | [13] 0.054 | [14] 0.037 | [15] -0.014 | [16] -0.003

ENDOD1 (UniProt O94919)
inactive: erlotinib 0.013 | [1] -0.017 | [2] 0.036 | [3] 0.019 | [4] -0.012 | [5] 0 | [6] -0.041 | [7] 0.009 | [8] 0.02 | IRAK-1-4 Inhibitor I 0.058 | ibrutinib 0.001 | [9] 0.002 | ralimetinib -0.015 | [10] -0.009 | [11] -0.002 | [12] -0.015 | [13] -0.073 | [14] -0.022 | [15] -0.006 | [16] -0.043

ELOVL1 (UniProt Q9BW60)
inactive: erlotinib -0.048 | [1] -0.063 | [2] -0.175 | [3] -0.037 | [4] 0.012 | [5] -0.027 | [6] -0.139 | [7] 0.058 | [8] -0.066 | IRAK-1-4 Inhibitor I 0.052 | ibrutinib -0.033 | [9] 0.079 | ralimetinib 0.026 | [10] -0.178 | [11] -0.119 | [13] 0.033 | [14] 0.071 | [15] 0.004 | [16] 0.023

EIF3D (UniProt O15371)
inactive: erlotinib -0.008 | [1] 0.057 | [2] -0.046 | [3] -0.008 | [4] 0.03 | [5] -0.014 | [6] -0.028 | [7] -0.006 | [8] 0.031 | IRAK-1-4 Inhibitor I -0.027 | ibrutinib -0.013 | [9] -0.005 | ralimetinib 0.013 | [10] 0.013 | [11] 0.029 | [12] -0.016 | [13] 0.02 | [14] -0.016 | [15] 0.035 | [16] 0.012

EIF4H isoform 2 (UniProt Q15056)
inactive: erlotinib -0.035 | [1] 0.276 | [2] 0.151 | [3] 0.024 | [4] -0.1 | [5] -0.03 | [6] 0.1 | [7] 0.221 | [8] 0.147 | IRAK-1-4 Inhibitor I 0.013 | ibrutinib 0.023 | [9] 0.006 | ralimetinib -0.082 | [10] -0.164 | [11] -0.055 | [13] -0.094 | [14] -0.053 | [15] -0.084 | [16] 0.1

ERC1 (UniProt X6RLX0)
inactive: erlotinib -0.012 | [1] 0.015 | [2] 0.002 | [3] -0.029 | [4] 0.032 | [5] 0.021 | [6] -0.025 | [7] -0.023 | [8] 0.012 | IRAK-1-4 Inhibitor I 0.014 | ibrutinib 0.018 | [9] -0.027 | ralimetinib -0.021 | [10] -0.034 | [11] -0.019 | [12] -0.013 | [13] -0.03 | [14] 0.01 | [15] -0.01 | [16] -0.038

ELMO1 (UniProt Q92556)
inactive: erlotinib -0.003 | [1] -0.065 | [2] -0.004 | [3] -0.024 | [4] -0.005 | [5] -0.023 | [6] 0.007 | [7] -0.02 | [8] 0.003 | IRAK-1-4 Inhibitor I 0.005 | ibrutinib -0.012 | [9] 0.094 | ralimetinib -0.019 | [10] -0.049 | [11] 0.063 | [12] -0.273 | [13] -0.024 | [14] 0.028 | [15] 0.026 | [16] -0.027

ERF (UniProt P50548)
inactive: erlotinib 0.109 | [1] -0.192 | [2] 0.053 | [3] -0.131 | [5] -0.064 | [6] -0.004 | IRAK-1-4 Inhibitor I -0.023 | ralimetinib -0.054 | [10] -0.092 | [11] 0.218 | [12] -0.124 | [13] 0.029 | [14] -0.035 | [15] 0.025

Random excerpt: two entries already listed, in no set order.
ERF (UniProt P50548)
inactive: erlotinib 0.109 | [1] -0.192 | [2] 0.053 | [3] -0.131 | [5] -0.064 | [6] -0.004 | IRAK-1-4 Inhibitor I -0.023 | ralimetinib -0.054 | [10] -0.092 | [11] 0.218 | [12] -0.124 | [13] 0.029 | [14] -0.035 | [15] 0.025

ERC1 (UniProt X6RLX0)
inactive: erlotinib -0.012 | [1] 0.015 | [2] 0.002 | [3] -0.029 | [4] 0.032 | [5] 0.021 | [6] -0.025 | [7] -0.023 | [8] 0.012 | IRAK-1-4 Inhibitor I 0.014 | ibrutinib 0.018 | [9] -0.027 | ralimetinib -0.021 | [10] -0.034 | [11] -0.019 | [12] -0.013 | [13] -0.03 | [14] 0.01 | [15] -0.01 | [16] -0.038

Next part:

EPB41L2 (UniProt O43491)
inactive: erlotinib -0.025 | [1] 0.004 | [2] 0.009 | [3] -0.026 | [4] -0.013 | [5] 0.001 | [6] 0.001 | [7] -0.004 | [8] 0.01 | IRAK-1-4 Inhibitor I 0.021 | ibrutinib 0.031 | [9] -0.006 | ralimetinib 0.003 | [10] -0.021 | [11] -0.01 | [12] -0.004 | [13] -0.011 | [14] -0.027 | [15] 0.005 | [16] 0.003

EPG5 (UniProt Q9HCE0)
inactive: erlotinib -0.214 | [2] -0.087 | [4] 0 | [5] 0.009 | [7] 0.015 | [8] 0.056 | IRAK-1-4 Inhibitor I 0.062 | ibrutinib -0.049 | [9] 0.024 | ralimetinib -0.087 | [10] 0.005 | [11] -0.056 | [12] -0.152 | [13] -0.078 | [14] 0.027 | [15] 0.012 | [16] -0.072

ERCC6 (UniProt P0DP91)
inactive: erlotinib 0.173 | [2] -0.522 | [4] 0.107 | [5] 0.084 | [7] -0.244 | [8] 0.016 | IRAK-1-4 Inhibitor I -0.099 | ibrutinib -0.315 | ralimetinib 0.219 | [10] 0.3 | [11] 0.098 | [12] 0.173 | [13] -0.158 | [15] 0.173

EIF4E2 (UniProt O60573)
inactive: erlotinib -0.002 | [1] 0.017 | [2] -0.035 | [3] -0.037 | [4] -0.075 | [5] 0.039 | [6] -0.013 | [7] -0.036 | [8] 0.067 | IRAK-1-4 Inhibitor I 0.037 | ibrutinib -0.079 | [9] 0.004 | ralimetinib 0.039 | [10] -0.026 | [11] 0.055 | [12] 0.042 | [13] 0.083 | [14] -0.024 | [15] -0.059 | [16] -0.015

ELOVL7 (UniProt A1L3X0)
inactive: erlotinib -0.08 | [2] -0.266 | [4] 0.09 | [5] -0.1 | IRAK-1-4 Inhibitor I 0.131 | ibrutinib 0.028 | [9] 0.045 | ralimetinib 0.06 | [10] -0.064 | [11] -0.187 | [12] 0.119 | [13] -0.038 | [15] 0.024 | [16] 0
